In the supplement of paper PMC10849652:
Some of the results follow.

By UniProt entry, the sequences of proteins in these tests, tags left out. Where a name states a change or a piece, a line headed by the entry shows the natural chain unless it says otherwise.
UniProt Q6ZNW5: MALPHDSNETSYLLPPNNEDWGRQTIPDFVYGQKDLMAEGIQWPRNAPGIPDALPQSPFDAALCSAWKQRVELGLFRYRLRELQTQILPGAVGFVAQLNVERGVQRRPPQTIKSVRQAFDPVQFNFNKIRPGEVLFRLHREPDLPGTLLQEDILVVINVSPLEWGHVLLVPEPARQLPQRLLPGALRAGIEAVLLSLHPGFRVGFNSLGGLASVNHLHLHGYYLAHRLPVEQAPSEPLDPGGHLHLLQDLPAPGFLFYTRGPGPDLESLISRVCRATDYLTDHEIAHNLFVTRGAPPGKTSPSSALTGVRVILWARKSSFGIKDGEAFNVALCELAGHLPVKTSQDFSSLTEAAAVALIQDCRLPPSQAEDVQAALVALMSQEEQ
UniProt Q01415: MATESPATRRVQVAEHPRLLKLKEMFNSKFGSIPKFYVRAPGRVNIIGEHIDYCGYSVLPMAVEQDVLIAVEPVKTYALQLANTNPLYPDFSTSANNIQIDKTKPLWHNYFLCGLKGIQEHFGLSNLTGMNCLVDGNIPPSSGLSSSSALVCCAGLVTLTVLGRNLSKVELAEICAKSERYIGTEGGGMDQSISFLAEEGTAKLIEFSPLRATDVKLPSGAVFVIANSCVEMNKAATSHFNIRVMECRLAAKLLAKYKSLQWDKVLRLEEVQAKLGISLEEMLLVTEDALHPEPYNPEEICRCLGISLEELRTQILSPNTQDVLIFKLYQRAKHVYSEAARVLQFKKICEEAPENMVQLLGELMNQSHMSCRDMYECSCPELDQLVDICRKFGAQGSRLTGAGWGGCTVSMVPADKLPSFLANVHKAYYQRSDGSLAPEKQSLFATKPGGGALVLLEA
UniProt P50395: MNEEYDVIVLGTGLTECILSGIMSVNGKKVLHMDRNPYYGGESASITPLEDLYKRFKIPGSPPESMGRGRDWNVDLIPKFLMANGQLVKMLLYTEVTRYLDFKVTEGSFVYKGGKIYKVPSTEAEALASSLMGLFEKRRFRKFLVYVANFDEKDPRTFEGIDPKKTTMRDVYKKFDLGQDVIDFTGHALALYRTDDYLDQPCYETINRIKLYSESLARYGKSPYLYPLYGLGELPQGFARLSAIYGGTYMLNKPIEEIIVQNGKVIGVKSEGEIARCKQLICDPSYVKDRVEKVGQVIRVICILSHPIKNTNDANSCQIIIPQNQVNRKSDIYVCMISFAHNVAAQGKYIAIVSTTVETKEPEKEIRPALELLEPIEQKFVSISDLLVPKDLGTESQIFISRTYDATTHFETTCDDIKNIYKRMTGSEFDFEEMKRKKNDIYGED
UniProt O43524: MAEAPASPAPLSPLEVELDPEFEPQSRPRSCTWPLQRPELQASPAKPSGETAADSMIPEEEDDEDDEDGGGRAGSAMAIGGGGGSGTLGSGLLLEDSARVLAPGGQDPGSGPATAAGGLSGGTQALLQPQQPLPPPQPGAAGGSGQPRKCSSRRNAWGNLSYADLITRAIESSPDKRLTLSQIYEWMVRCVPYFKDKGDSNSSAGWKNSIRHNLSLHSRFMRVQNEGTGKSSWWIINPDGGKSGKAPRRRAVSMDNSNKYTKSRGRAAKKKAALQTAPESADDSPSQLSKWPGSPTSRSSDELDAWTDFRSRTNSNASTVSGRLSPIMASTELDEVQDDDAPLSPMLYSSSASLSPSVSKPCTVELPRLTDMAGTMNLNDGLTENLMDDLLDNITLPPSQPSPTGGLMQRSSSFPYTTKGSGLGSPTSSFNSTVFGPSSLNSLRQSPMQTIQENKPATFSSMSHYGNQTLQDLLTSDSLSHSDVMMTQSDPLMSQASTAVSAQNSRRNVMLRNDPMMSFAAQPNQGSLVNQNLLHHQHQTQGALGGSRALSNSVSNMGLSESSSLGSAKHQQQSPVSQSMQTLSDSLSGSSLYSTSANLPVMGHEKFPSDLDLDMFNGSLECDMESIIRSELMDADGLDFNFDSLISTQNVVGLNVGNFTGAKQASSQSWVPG
UniProt P51114, whole entry, looked up: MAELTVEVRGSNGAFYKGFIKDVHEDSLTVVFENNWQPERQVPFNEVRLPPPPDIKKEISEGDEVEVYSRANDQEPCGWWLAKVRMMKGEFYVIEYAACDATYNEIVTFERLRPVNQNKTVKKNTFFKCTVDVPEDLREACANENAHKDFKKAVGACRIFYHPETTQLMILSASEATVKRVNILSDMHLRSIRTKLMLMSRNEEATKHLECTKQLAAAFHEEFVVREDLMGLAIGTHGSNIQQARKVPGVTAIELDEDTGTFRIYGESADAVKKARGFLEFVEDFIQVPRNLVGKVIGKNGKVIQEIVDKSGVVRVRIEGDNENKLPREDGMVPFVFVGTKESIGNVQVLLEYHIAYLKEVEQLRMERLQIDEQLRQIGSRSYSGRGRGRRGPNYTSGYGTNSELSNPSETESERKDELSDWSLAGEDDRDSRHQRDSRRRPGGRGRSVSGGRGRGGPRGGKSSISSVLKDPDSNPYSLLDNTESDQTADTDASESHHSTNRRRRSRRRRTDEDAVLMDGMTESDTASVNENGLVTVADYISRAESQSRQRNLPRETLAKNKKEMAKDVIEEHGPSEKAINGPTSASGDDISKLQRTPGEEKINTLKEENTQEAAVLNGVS
UniProt P48507: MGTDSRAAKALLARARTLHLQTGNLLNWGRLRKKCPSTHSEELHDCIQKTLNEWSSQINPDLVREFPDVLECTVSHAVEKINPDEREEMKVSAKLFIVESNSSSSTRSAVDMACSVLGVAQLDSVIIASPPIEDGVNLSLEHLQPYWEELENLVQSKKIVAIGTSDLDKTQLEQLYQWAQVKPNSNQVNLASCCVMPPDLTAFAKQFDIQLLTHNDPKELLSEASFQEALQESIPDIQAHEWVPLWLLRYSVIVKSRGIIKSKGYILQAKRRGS
UniProt Q14C86: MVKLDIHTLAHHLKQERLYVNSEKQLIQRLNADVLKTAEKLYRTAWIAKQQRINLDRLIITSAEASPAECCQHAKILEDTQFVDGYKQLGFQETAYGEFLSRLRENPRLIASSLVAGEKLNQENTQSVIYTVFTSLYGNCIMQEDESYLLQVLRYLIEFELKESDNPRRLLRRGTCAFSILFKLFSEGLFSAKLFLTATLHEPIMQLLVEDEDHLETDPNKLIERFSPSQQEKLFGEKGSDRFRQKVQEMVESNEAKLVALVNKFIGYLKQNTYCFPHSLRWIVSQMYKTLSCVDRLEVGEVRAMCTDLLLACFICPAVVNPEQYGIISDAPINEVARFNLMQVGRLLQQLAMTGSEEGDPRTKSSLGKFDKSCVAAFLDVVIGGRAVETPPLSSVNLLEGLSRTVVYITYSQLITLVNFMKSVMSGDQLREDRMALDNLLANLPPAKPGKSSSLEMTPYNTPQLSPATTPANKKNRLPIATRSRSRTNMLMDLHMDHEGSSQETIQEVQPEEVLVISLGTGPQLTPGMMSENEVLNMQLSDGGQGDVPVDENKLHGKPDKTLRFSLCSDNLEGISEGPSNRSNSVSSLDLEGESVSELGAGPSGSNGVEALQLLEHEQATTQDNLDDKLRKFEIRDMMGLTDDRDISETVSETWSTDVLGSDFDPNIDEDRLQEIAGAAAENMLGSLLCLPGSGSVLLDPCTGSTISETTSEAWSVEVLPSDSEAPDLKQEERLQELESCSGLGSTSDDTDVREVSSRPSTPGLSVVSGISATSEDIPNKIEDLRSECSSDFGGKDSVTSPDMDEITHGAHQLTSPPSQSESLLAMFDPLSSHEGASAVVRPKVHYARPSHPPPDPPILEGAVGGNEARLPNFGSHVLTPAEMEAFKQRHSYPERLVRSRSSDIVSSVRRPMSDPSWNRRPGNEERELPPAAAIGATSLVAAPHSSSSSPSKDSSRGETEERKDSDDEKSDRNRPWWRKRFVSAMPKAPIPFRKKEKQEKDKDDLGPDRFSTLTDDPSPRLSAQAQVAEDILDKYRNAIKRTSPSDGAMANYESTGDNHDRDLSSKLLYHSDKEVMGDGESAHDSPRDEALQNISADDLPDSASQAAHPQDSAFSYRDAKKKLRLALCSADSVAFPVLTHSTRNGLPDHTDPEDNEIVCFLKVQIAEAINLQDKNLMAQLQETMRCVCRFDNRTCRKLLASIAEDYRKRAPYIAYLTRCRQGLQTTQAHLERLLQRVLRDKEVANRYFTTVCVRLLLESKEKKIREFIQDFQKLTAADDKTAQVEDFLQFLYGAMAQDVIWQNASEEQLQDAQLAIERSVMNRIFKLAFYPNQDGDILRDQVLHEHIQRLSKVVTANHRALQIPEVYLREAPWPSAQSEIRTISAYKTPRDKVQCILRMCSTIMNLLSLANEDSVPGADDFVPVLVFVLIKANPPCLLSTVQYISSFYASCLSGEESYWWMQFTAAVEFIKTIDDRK
UniProt Q8IWJ2: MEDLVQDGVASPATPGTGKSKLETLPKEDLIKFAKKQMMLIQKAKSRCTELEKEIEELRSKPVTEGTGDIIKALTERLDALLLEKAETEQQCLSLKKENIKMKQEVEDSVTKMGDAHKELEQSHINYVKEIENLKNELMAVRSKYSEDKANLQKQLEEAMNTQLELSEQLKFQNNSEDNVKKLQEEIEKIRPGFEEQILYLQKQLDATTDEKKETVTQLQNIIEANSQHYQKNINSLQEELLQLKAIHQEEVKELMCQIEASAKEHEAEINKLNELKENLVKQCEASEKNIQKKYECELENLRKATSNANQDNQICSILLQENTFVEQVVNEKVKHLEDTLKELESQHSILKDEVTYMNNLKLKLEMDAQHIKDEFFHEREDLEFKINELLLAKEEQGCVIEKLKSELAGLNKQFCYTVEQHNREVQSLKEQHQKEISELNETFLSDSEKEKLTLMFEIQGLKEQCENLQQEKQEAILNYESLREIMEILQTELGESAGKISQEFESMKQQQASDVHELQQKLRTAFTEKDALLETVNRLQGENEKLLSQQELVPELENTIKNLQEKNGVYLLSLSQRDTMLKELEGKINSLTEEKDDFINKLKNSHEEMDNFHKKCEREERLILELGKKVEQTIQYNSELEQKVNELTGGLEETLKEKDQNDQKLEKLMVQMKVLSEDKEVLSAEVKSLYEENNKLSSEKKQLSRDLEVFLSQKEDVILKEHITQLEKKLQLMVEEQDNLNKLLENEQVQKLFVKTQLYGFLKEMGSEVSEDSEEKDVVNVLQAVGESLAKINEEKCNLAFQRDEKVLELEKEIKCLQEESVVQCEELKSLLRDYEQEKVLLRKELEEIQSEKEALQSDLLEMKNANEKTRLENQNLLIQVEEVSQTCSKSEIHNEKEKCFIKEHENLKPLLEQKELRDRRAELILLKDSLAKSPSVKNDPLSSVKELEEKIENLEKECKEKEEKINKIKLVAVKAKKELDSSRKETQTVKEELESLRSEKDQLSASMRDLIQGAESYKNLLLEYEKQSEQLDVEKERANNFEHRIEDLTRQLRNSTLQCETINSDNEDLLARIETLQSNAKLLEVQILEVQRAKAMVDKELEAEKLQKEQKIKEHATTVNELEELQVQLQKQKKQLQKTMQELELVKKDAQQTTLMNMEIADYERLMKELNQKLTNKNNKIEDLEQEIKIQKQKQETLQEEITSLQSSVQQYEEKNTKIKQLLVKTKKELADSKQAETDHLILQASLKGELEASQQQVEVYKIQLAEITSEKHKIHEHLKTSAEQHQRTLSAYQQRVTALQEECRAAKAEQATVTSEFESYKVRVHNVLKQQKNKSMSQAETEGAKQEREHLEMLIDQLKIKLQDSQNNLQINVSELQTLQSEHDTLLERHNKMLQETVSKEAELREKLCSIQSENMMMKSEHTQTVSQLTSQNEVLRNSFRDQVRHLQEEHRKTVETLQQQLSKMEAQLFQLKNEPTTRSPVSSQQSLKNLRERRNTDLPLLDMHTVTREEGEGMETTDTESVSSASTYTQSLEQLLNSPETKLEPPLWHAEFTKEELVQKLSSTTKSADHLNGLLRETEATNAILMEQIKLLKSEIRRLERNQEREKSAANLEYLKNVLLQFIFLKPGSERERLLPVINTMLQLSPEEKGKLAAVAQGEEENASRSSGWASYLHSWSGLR
UniProt P02792: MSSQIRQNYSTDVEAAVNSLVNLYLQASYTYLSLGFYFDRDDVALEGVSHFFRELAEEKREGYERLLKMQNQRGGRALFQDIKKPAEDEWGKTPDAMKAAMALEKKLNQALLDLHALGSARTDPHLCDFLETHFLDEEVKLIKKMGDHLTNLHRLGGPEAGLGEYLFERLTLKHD
UniProt Q99988: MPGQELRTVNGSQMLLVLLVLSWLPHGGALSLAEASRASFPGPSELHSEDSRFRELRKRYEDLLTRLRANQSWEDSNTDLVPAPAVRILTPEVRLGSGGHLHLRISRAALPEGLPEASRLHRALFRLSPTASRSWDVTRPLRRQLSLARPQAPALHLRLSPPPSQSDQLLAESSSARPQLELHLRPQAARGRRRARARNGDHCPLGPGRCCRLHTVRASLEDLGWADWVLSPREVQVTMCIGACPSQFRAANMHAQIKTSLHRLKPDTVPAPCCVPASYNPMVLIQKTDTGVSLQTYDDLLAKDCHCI

Legend:
Test in all cases: log2 fold change, soluble protein after heating vs DMSO (PISA); higher = thermal stabilisation; K562 lysate, 10 uM; active = over 0.2 and 3.5 SD of the protein, either way, in both replicates (recomputed)
[1] = compound: Cc1cn(-c2cc(NC(=O)c3ccc(C)c(Nc4nccc(-c5cccnc5)n4)c3)cc(C(F)(F)F)c2)cn1 [nilotinib]
In short: (§1)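 K562 pellets were dounce-homogenised in PBS pH 7.4 with 1 mM MgCl2, and the crude extract at 1 mg/mL protein was treated with 10 μM compound for 30 min. Aliquots were heated for 3 min across 48°C-58°C, pooled, and brought to 0.5% NP-40 at 4°C; soluble protein was the supernatant after 21,000xg for 90 min. Soluble protein was quantified by TMTpro 16plex LC-MS/MS with channel sums equalised, and reported as log2 fold change in thermal stability against DMSO controls, with values from duplicates.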

[2] = compound: Cc1nc(Nc2n[nH]c3c2CN(C(=O)N[C@H](CN(C)C)c2ccccc2)C3(C)C)c2sccc2n1
In short: as §1

[3] = compound: Cc1nc(Nc2ncc(C(=O)Nc3c(C)cccc3Cl)s2)cc(N2CCN(CCO)CC2)n1 [dasatinib]
In short: as §1

[4] = compound: Cc1ncc(-c2ccnc(Nc3ccc(S(C)(=O)=O)cc3)n2)n1C(C)C
In short: as §1

[5] = compound: Cn1cc(-c2ccc3c(c2)CCN3C(=O)Cc2cccc(C(F)(F)F)c2)c2c(N)ncnc21
In short: as §1

[6] = compound: Cn1cc(CNCC2CCN(c3ncc(C(=O)NO)cn3)CC2)c2ccccc21 [quisinostat]
In short: as §1

[7] = compound: Cn1cncc1[C@@](N)(c1ccc(Cl)cc1)c1ccc2c(c1)c(-c1cccc(Cl)c1)cc(=O)n2C [tipifarnib]
In short: as §1

[8] = compound: NC(=O)Nc1cc(-c2cccc(F)c2)sc1C(=O)N[C@H]1CCCNC1
In short: as §1

[9] = compound: NC(=O)c1cnc(N[C@@H]2CCCC[C@@H]2N)nc1Nc1cccc(-n2nccn2)c1
In short: as §1

[10] = compound: NC1(c2ccc(-c3nc4ccn5c(=O)[nH]nc5c4cc3-c3ccccc3)cc2)CCC1
In short: as §1

Measured: log2 fold change

FSIP2 (UniProt Q5CZC0)
inactive: [1] -0.118 | [2] -0.023 | [3] -0.024 | [4] 0.014 | [5] -0.025 | [6] -0.411 | [7] -0.081 | [8] 0.051 | [9] -0.024 | [10] -0.188

FRYL (UniProt O94915)
inactive: [1] -0.046 | [2] 0.037 | [3] -0.052 | [4] -0.005 | [5] 0.005 | [6] -0.005 | [7] 0.031 | [8] 0.037 | [9] 0.003 | [10] 0.049

FREM2 (UniProt Q5SZK8)
inactive: [1] -0.108 | [2] 0.041 | [3] -0.071 | [4] -0.113 | [5] -0.014 | [6] -0.223 | [7] -0.168 | [8] 0.048 | [9] 0.059 | [10] 0.04

FUBP3 (UniProt Q96I24)
inactive: [1] -0.201 | [2] -0.016 | [3] -0.094 | [4] 0.012 | [5] 0.01 | [6] -0.029 | [7] -0.009 | [8] 0.043 | [9] -0.005 | [10] 0.032

GDPGP1 (UniProt Q6ZNW5)
inactive: [1] 0.018 | [2] 0.024 | [3] -0.041 | [4] 0.018 | [5] 0.05 | [6] 0.116 | [7] -0.015 | [8] 0.008 | [9] 0.028 | [10] 0.002

GABPA (UniProt Q06546)
inactive: [1] 0.031 | [2] -0.021 | [3] -0.032 | [4] 0.005 | [5] 0.002 | [6] -0.025 | [7] 0.011 | [8] -0.007 | [9] 0.005 | [10] 0.043

GALK2 (UniProt Q01415)
inactive: [1] 0.015 | [2] 0.003 | [3] -0.023 | [4] 0 | [5] 0.012 | [6] -0.014 | [7] 0.022 | [8] 0.017 | [9] 0.001 | [10] 0.005

GCAT isoform 2 (UniProt O75600)
inactive: [1] 0.036 | [2] -0.044 | [3] -0.003 | [4] 0.003 | [5] -0.013 | [6] 0.035 | [7] 0.049 | [8] 0.04 | [9] 0.047 | [10] -0.009

GDI2 (UniProt P50395)
inactive: [1] -0.001 | [2] 0.006 | [3] 0.002 | [4] 0.009 | [5] -0.022 | [6] 0.054 | [7] 0.007 | [8] -0.004 | [9] -0.003 | [10] 0.002

FOXO3 (UniProt O43524)
inactive: [1] -0.128 | [2] 0.191 | [3] 0.005 | [4] -0.228 | [5] -0.018 | [6] -0.05 | [7] 0.023 | [8] 0.026 | [9] -0.007 | [10] -0.058

FXR1 (UniProt P51114)
inactive: [1] -0.139 | [2] 0.031 | [3] 0.028 | [4] -0.011 | [5] 0.018 | [6] -0.057 | [7] -0.005 | [8] 0.024 | [9] -0.001 | [10] -0.047

GFER (UniProt P55789)
inactive: [1] 0.053 | [2] -0.026 | [3] 0.046 | [4] -0.124 | [5] 0.068 | [6] 0.002 | [7] 0.032 | [8] 0.018 | [9] -0.004 | [10] -0.132

GATD1 (UniProt Q8NB37)
inactive: [1] 0.017 | [2] -0.036 | [3] -0.002 | [4] 0.123 | [5] 0.102 | [6] -0.089 | [7] 0.011 | [8] 0.044 | [9] -0.013 | [10] -0.02

GCLM (UniProt P48507)
inactive: [1] -0.03 | [2] 0.016 | [3] -0.033 | [4] 0.013 | [5] 0.027 | [6] 0.016 | [7] 0.007 | [8] 0 | [9] -0.005 | [10] -0.005

GAPVD1 isoform 6 (UniProt Q14C86)
inactive: [1] 0.006 | [2] 0.005 | [3] -0.05 | [4] -0.005 | [5] 0.044 | [6] -0.029 | [7] -0.02 | [8] 0.032 | [9] 0.013 | [10] 0.026

GALE (UniProt Q14376)
inactive: [1] 0.011 | [2] 0.007 | [3] 0.037 | [4] -0.016 | [5] 0.036 | [6] 0.023 | [7] -0.017 | [8] 0.032 | [9] 0.025 | [10] 0.028

GET4 (UniProt Q7L5D6)
inactive: [1] -0.008 | [2] 0.037 | [3] -0.031 | [4] 0.007 | [5] 0.007 | [6] 0.004 | [7] -0.024 | [8] 0.027 | [9] -0.013 | [10] -0.015

GBE1 (UniProt Q04446)
inactive: [1] 0.006 | [2] 0 | [3] -0.088 | [4] -0.014 | [5] 0 | [6] 0.007 | [7] -0.029 | [8] 0.033 | [9] -0.004 | [10] 0.011

FOXK1 (UniProt P85037)
inactive: [1] -0.006 | [2] -0.014 | [3] -0.065 | [4] -0.038 | [5] 0.004 | [6] -0.031 | [7] -0.042 | [8] -0.002 | [9] -0.011 | [10] 0.007

GCC2 (UniProt Q8IWJ2)
inactive: [1] 0.02 | [2] 0.024 | [3] 0.019 | [4] 0.02 | [5] 0.014 | [6] -0.038 | [7] -0.001 | [8] -0.02 | [9] -0.015 | [10] -0.003

GADD45GIP1 (UniProt Q8TAE8)
inactive: [1] -0.001 | [2] 0.008 | [3] -0.039 | [4] -0.009 | [5] 0.097 | [6] 0.033 | [7] 0.001 | [8] 0.017 | [9] 0.056 | [10] 0.005

GDAP2 (UniProt Q9NXN4)
inactive: [1] -0.056 | [2] 0.077 | [3] -0.026 | [4] 0.09 | [5] -0.029 | [6] -0.085 | [7] 0.05 | [8] 0.008 | [9] 0.02 | [10] -0.048

GAB2 (UniProt Q9UQC2)
inactive: [1] -0.03 | [2] 0.028 | [3] 0.005 | [4] -0.006 | [5] 0.066 | [6] -0.087 | [7] -0.001 | [8] 0.016 | [9] 0.012 | [10] -0.004

GFM1 (UniProt Q96RP9)
inactive: [1] 0.026 | [2] -0.019 | [3] -0.024 | [4] -0.002 | [5] 0.03 | [6] 0.032 | [7] 0.005 | [8] 0.02 | [9] 0.01 | [10] -0.004

Two entries picked at random from those above, as already listed:
GFM1 (UniProt Q96RP9)
inactive: [1] 0.026 | [2] -0.019 | [3] -0.024 | [4] -0.002 | [5] 0.03 | [6] 0.032 | [7] 0.005 | [8] 0.02 | [9] 0.01 | [10] -0.004

GDAP2 (UniProt Q9NXN4)
inactive: [1] -0.056 | [2] 0.077 | [3] -0.026 | [4] 0.09 | [5] -0.029 | [6] -0.085 | [7] 0.05 | [8] 0.008 | [9] 0.02 | [10] -0.048

Next part.

G6PD isoform 2 (UniProt P11413)
inactive: [1] 0.013 | [2] -0.008 | [3] 0.01 | [4] -0.012 | [5] -0.01 | [6] -0.021 | [7] 0.016 | [8] 0.012 | [9] -0.035 | [10] 0.008

FTL (UniProt P02792)
inactive: [1] -0.039 | [2] 0.035 | [3] -0.03 | [4] -0.038 | [5] -0.012 | [6] 0.043 | [7] 0.017 | [8] 0.091 | [9] 0.009 | [10] 0.06

FOXK2 (UniProt Q01167)
inactive: [1] 0.01 | [2] 0.017 | [3] -0.052 | [4] -0.006 | [5] 0.051 | [6] -0.034 | [7] -0.027 | [8] 0.078 | [9] -0.029 | [10] 0.05

GDF15 (UniProt Q99988)
inactive: [1] 0.146 | [2] 0.065 | [3] 0.119 | [4] -0.01 | [5] -0.095 | [6] 0.007 | [7] 0.066 | [8] -0.043 | [10] 0.089

GAB1 isoform 2 (UniProt Q13480)
inactive: [1] -0.019 | [2] 0.039 | [3] -0.025 | [4] 0.005 | [5] 0.025 | [6] -0.049 | [7] 0.02 | [8] 0.005 | [9] 0.007 | [10] 0.042

GADD45A (UniProt P24522)
inactive: [1] -0.112 | [2] 0.124 | [4] 0.092 | [6] -0.079 | [7] 0.133 | [8] -0.008
